Experimental data taken from PubChem BioAssay AID1671190 (National Center for Advancing Translational Sciences (NCATS), 2021).
Several values for one entry are separate records, joined by “and”; a condition that tells them apart may be missing. Equal values may be shown once. In all, about 580,000 compounds went through this assay and about 6,100 (1.1%) were called active. The shares of active, inactive and inconclusive entries below differ from those in the screen. The call rests on the fitted dose curve; in most records, active means well fitted inhibition curve with a large enough effect; inconclusive means small, poorly fitted or top-dose-only effect, or another doubt; inactive means no such curve, though single readings can be large or run the other way. Potencies beside an inconclusive call are fits to weak or partial responses and may not hold up.

The chains behind the UniProt entries cited, without tags or fusion partners. Where a name states a change or a piece, a line headed by the entry shows the natural chain unless it says otherwise.
UniProt P18054: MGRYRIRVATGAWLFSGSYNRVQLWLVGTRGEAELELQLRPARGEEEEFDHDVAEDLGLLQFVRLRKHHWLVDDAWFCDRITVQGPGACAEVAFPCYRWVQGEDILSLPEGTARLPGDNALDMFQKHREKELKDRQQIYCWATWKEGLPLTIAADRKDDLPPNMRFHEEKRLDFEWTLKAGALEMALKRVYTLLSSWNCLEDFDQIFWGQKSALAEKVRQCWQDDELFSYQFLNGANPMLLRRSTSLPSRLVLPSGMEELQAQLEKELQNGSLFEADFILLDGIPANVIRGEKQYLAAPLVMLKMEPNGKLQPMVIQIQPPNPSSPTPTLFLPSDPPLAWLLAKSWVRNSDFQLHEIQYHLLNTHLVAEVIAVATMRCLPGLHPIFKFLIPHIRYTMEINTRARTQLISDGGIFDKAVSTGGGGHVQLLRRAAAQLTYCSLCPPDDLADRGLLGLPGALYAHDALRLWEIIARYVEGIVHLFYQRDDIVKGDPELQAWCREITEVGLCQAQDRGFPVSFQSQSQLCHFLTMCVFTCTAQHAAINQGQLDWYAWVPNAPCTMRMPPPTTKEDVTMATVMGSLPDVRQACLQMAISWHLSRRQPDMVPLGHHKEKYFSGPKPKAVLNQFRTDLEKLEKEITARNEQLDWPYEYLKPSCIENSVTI

The compounds below were run against Polyunsaturated fatty acid lipoxygenase ALOX12 (Homo sapiens) (UniProt P18054) (assay: Primary qHTS assay for inhibitors of human arachidonate 12S-lipoxygenase (ALOX12): Round 2). Conditions: purified 12hLO, xylenol orange hydroperoxide absorbance; activity change, negative = inhibition: at 108 µM (top of the series) unless noted.
Summary of the method: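 Purified human 12hLO (150 nM final) in 25 mM Hepes, 0.01% Triton X-100, pH 7.0 was preincubated 15 min at room temperature with compound. Then 40 uM arachidonic acid was added, 30 min. Hydroperoxide was read by Fe-XO absorbance ratio 573/405 nm.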
On the % scale 0 is the no-effect control and ±100 the full control effect; potency means the concentration at half of the fitted maximal effect.

| Compound | Potency | activity change, negative = inhibition |
| --- | --- | --- |
| CC(=O)Nc1ccc2nc3c(=O)n(C)c(=O)n(C)c3nc2c1 | inactive |  |
| O=C(O)Cn1ccc2cc(OCCc3cccc(-c4ccccc4F)c3)cnc21 | inconclusive: 56.2 µM [inhibitor, full curve] |  |
| O=C(O)C1CCCN(S(=O)(=O)c2ccc(-c3ccc(=O)[nH]n3)s2)C1 (stereo not drawn) | inconclusive: 112 µM [inhibitor, partial curve, poor fit] |  |
| COc1ccc(C(=O)Oc2cc(C)ccc2C)cc1I | inactive |  |
| CCCN(CCC)C(=O)CSc1ncccc1C(=O)O | inconclusive: 4.47 µM [inhibitor, full curve, poor fit] |  |
| CCS(=O)(=O)N1CCN(Cc2ccccc2OC)CC1 | inconclusive: 2.24 µM [inhibitor, full curve, poor fit] |  |
| CCN1C(c2ccc(F)cc2)=CS/C1=C(\C#N)c1nnc2n1-c1ccccc1SC2 | inconclusive: 39.8 µM [inhibitor, partial curve, poor fit] |  |
| CCCCCCCCCCCCCCCC(O)C[N+](C)(C)CCO (stereo not drawn) | active: 15.8 µM |  |
| Cc1nc(-c2cccc(F)c2)sc1CCNC(=O)c1ccc(F)c(F)c1 | inconclusive: 141 µM [inhibitor, single point] |  |
| Cc1c(C)n(CC(O)CSc2ccccc2)c2ccccc12 (stereo not drawn) | inconclusive: 35.5 µM [inhibitor, partial curve, poor fit] |  |
| COc1ccc(-c2cc(C[C@H]3CNCC[C@H]3CC(=O)Nc3nccs3)no2)cc1 | inconclusive: 22.4 µM [inhibitor, full curve, poor fit] |  |
| COc1cc(/C=C/C(=O)c2ccc(O)cc2)ccc1OCC#N | inactive |  |
| O=C(Nc1ccc(Cl)cc1)OCc1cc(-c2ccccc2)on1 | inconclusive: 112 µM [inhibitor, single point] |  |
| Cn1c(=O)c2c(nc(SCC(=O)O)n2Cc2cc3c(cc2Cl)OCO3)n(C)c1=O | inconclusive: 44.7 µM [inhibitor, partial curve, poor fit] |  |
| CC(=O)N1CCC(NC2(Cc3cc(CN(C)Cc4ccccc4)on3)COC2)CC1 | inactive |  |
| CC(Oc1cccc(Oc2ccccc2)c1)C(=O)c1ccc(F)c(F)c1 (stereo not drawn) | inconclusive: 79.4 µM [inhibitor, single point] |  |
| O=C1C2C3C=CC(CNS(=O)(=O)c4ccccc4)(O3)C2C(=O)N1c1ccc(Cl)cc1 (stereo not drawn) | inactive |  |
| Cc1ccc(S(=O)(=O)N2[C@@H](c3ccc(F)cc3)C(C(=O)O)=CC[C@H]2c2ccc(Cl)cc2)cc1 | inconclusive: 79.4 µM [inhibitor, partial curve, poor fit] |  |
| COc1ccc2cc(CNCCOCCOCCNCc3ccc4cc(OC)ccc4c3)ccc2c1 | inconclusive: 50.1 µM [inhibitor, partial curve, poor fit] |  |
| N#Cc1c(NC(=O)c2ccc(Br)o2)n(-c2ccccc2)c2nc3ccccc3nc12 | inconclusive: 79.4 µM [inhibitor, partial curve, poor fit] |  |

| Compound | Potency | activity change, negative = inhibition |
| --- | --- | --- |
| c1cncc(CNc2nc(-c3cccnc3)nc3ccccc23)c1 | inactive and inconclusive: 20 µM [inhibitor, partial curve, poor fit] |  |
| Cc1ccc(NNC(=O)c2ccno2)cc1Cl | inconclusive: 2.51 µM [inhibitor, full curve, poor fit] |  |
| CC1=C(C(=O)OCC(C)C)C(c2ccsc2)C2=C(CCCC2=O)N1 (stereo not drawn) | inconclusive: 25.1 µM [inhibitor, partial curve, poor fit] |  |
| CC(C)(C)NC(=O)c1ccc2c(c1)C(=O)N(C1CCCCC1)C2=O | inconclusive: 112 µM [inhibitor, partial curve, poor fit] |  |
| COc1cc(/C=C2\SC(=S)N(CC(=O)O)C2=O)ccc1OS(=O)(=O)c1ccc(C)cc1 | inconclusive: 50.1 µM [inhibitor, partial curve, poor fit] |  |
| OCc1cn(-c2ccccc2)nn1 | inactive |  |
| O=C(O)Cn1c(C(F)(F)F)nc2ccccc21 | inactive |  |
| CC1=C(C(=O)OCC2CCCCC2)C(c2ccc(F)cc2)NC(=O)N1 (stereo not drawn) | inconclusive: 79.4 µM [inhibitor, partial curve, poor fit] |  |
| O=C(OCc1nnc(-c2ccccc2)o1)c1ccc2c(c1)C(=O)N(CCc1ccccc1)C2=O | inconclusive: 12.6 µM [inhibitor, partial curve, poor fit] |  |
| COC(=O)c1ccccc1S(=O)(=O)N1CCC(C(=O)OC(C)C(=O)Nc2ccccc2OC)CC1 (stereo not drawn) | inconclusive: 70.8 µM [inhibitor, partial curve, poor fit] |  |
| Cc1cc(C)n(-c2ccc(Cl)c(C(=O)O)c2)n1 | inconclusive: 2.82 µM [inhibitor, partial curve, poor fit] |  |
| CC1CCN(S(=O)(=O)c2ccc(NC(=O)N3c4ccccc4Sc4ccccc43)cc2)CC1 | inconclusive: 50.1 µM [inhibitor, partial curve, poor fit] |  |
| FC(F)(F)c1c(C(F)(F)C(F)(F)F)nc2ccccc2c1Nc1ccccc1 | inactive |  |
| COCCN(C(=O)COC(=O)C1CCC(C(C)(C)C)CC1)c1c(N)n(Cc2ccccc2)c(=O)[nH]c1=O (stereo not drawn) | inconclusive: 100 µM [inhibitor, single point] |  |
| CCOC(=O)c1ccc(N2CSC3=C(C#N)C(c4ccc(OC)cc4OC)CC(=O)N3C2)cc1 (stereo not drawn) | inconclusive: 4.47 µM [inhibitor, full curve, poor fit] |  |
| COc1ccc(/C=N\NC(=O)CNC(=O)C(c2ccccc2)c2ccccc2)cc1[N+](=O)[O-] | inactive |  |
| CCN1CCN(c2c(Cl)cccc2NC(=O)c2ccc([N+](=O)[O-])o2)CC1 | inactive |  |
| COCCNc1nc(-c2ccccc2Cl)nc2ccccc12 | inconclusive: 28.2 µM [inhibitor, single point] |  |
| OCCN(CCO)Cc1ccc(Br)cc1 | inconclusive: 0.224 µM [inhibitor, full curve, poor fit] |  |
| CCOc1ccc(/C=C(\C#N)C(=O)Nc2sc3c(c2C(=O)OC)C(C(=O)OC)CC3)cc1OC (stereo not drawn) | inconclusive: 3.98 µM [inhibitor, full curve, poor fit] |  |
| COc1ccc(CCN2C(=O)O[C@@H]3CN(S(=O)(=O)N4CCCCC4)C[C@@H]32)cc1 | inactive |  |

Gathered by group, the entries above containing a nitro group on carbon (2)

| Compound | Potency | activity change, negative = inhibition |
| --- | --- | --- |
| COc1ccc(/C=N\NC(=O)CNC(=O)C(c2ccccc2)c2ccccc2)cc1[N+](=O)[O-] | inactive |  |
| CCN1CCN(c2c(Cl)cccc2NC(=O)c2ccc([N+](=O)[O-])o2)CC1 | inactive |  |

Next part:

| Compound | Potency | activity change, negative = inhibition |
| --- | --- | --- |
| CCc1ccc(C2CC(c3cccc(Cl)c3)n3nc(N)nc3N2)cc1 (stereo not drawn) | inconclusive: 50.1 µM [inhibitor, partial curve, poor fit] |  |
| CCC(=O)Nc1nnc(/C=C/c2ccccc2)s1 | inconclusive: 3.98 µM [inhibitor, full curve] |  |
| CSc1ncnc2c1ncn2CCCN(C)CCc1ccccn1 | inconclusive: 31.6 µM [inhibitor, partial curve] |  |
| COc1cc(NC(=O)c2cc(=O)[nH]c3ccc(S(=O)(=O)N4CCOCC4)cc23)cc(OC)c1 | inconclusive: 39.8 µM [inhibitor, partial curve, poor fit] |  |
| CCCn1cc(SCC(=O)Nc2ccc(C)cc2)c2ccccc21 | inconclusive: 6.31 µM [inhibitor, full curve, poor fit] |  |
| CN1c2ccccc2N(C)C1(C)c1ccccc1 | inconclusive: 50.1 µM [inhibitor, partial curve, poor fit] |  |
| C=CCOc1cccc(C(=O)N2CCCC(Nc3ccc(F)cc3)C2)c1 (stereo not drawn) | inconclusive: 50.1 µM [inhibitor, partial curve, poor fit] |  |
| Cc1ccc(-c2ccc(C=O)o2)cc1Cl | inconclusive: 12.6 µM [inhibitor, full curve] |  |
| Cc1ccc(-c2nc(CS(=O)(=O)CC(=O)NCc3ccccc3Cl)c(C)o2)cc1 | inconclusive: 3.98 µM [inhibitor, full curve, poor fit] |  |
| CN(C)C(=O)C1CC1c1ccc(Br)cc1 (stereo not drawn) | inconclusive: 7.08 µM [inhibitor, full curve, poor fit] |  |
| CCSCCOC(=O)C1=C(C)NC(=O)NC1c1ccc2c(c1)OCO2 (stereo not drawn) | inconclusive: 100 µM [inhibitor, single point] |  |
| Cc1ccccc1CNC(=O)c1sc2ncnc(N(C)C3CCCCC3)c2c1C | inconclusive: 126 µM [inhibitor, partial curve, poor fit] |  |
| Cc1oc(-c2cccc(Cl)c2)nc1CN1CCCC(C(=O)NCc2ccc(Cl)cc2)C1 (stereo not drawn) | inconclusive: 14.1 µM [inhibitor, partial curve, poor fit] |  |
| CN(C)c1cccc(Oc2nc3c(c(=O)n(C)c(=O)n3C)n2C)c1 | inconclusive: 126 µM [inhibitor, single point] |  |
| N#Cc1c(F)cccc1N1CCC(C#N)CC1 | inconclusive: 0.316 µM [inhibitor, full curve, poor fit] |  |
| NC(=O)C1CCN(c2nc(-c3cccnc3)cs2)CC1 | inconclusive: 44.7 µM [inhibitor, partial curve] |  |
| COc1cc2c(C#CCCO)c(-c3ccsc3)oc(=O)c2cc1OC | inconclusive: 50.1 µM [inhibitor, partial curve, poor fit] |  |
| O=C(NCc1nnc2ccccn12)[C@H]1CNC[C@H](C(=O)N2CCOCC2)C1 | inactive |  |
| O=C(NCC1CC1)C1CCCN(C(=O)Cc2c[nH]c3ccccc23)C1 (stereo not drawn) | inactive |  |
| CC1(C(=O)N2CC3(CC(c4cccc(NC(=O)COc5ccc(Cl)cc5)c4)=NO3)C[C@@H]2C(N)=O)CC1 (stereo partly drawn) | inconclusive: 31.6 µM [inhibitor, full curve, poor fit] |  |
| COc1ccccc1-n1cc2c(c1-c1ccc(C)cc1)c(=O)n(C)c(=O)n2C | inactive |  |
